Assay [1] addresses T1, EcCXCR4b-6His (pcDNA4.0-EcCXCR4b-6His) (Epinephelus coioides) (UniProt G0XMT3).
T1 sequence: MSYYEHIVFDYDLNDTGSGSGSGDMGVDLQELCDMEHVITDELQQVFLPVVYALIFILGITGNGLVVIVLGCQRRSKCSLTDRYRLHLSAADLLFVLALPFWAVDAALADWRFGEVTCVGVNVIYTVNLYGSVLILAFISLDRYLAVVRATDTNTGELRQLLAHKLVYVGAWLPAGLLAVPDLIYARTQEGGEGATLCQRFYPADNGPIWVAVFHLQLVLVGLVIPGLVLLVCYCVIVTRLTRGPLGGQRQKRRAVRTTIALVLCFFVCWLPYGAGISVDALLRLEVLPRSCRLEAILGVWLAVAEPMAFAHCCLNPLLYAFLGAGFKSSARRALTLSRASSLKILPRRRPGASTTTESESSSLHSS
The experiment in a line: co-IP; cells co-transfected with the two plasmids for 24 h; lysate on resin immobilized with anti-His antibody overnight at 4°C (Pierce Co-IP Kit); western blotting.

Assay [2] addresses T1, EcCXCR4b-6His (pcDNA4.0-EcCXCR4b-6His) (Epinephelus coioides). Kind of assay: co-IP; RGNNV-infected GS cells transfected with pcDNA4.0-EcCXCR4b-6His; lysate immunoprecipitated with anti-His antibody; western blotting.
Assay [3] addresses T2, His-EcCXCR4b recombinant protein (pET-32a-EcCXCR4b) (Epinephelus coioides) (UniProt G0XMT3).
T2 sequence: T1 sequence
Kind of assay: ELISA; His-EcCXCR4b serially diluted in PBS and coated on 96-well plates overnight at 4°C; blocked with 2% BSA; purified His-CP added for 2 h; mouse anti-His and HRP anti-mouse IgG; OD450; both purified.

For assay [4], the target named is T3, GFP-EcCXCR4b (Epinephelus coioides) (UniProt G0XMT3).
T3 sequence: T1 sequence
The experiment in a line: co-IP; GS cells co-transfected for 24 h; lysates immunoprecipitated with anti-GFP antibodies; western blotting.

Assay [5] concerns the target His-CP fusion protein (pET-32a-CP) (red-spotted grouper nervous necrosis virus (RGNNV)). Kind of assay: pull-down; purified His-CP incubated with lysate of GS cells expressing GFP-EcCXCR4b; complexes enriched on resin immobilized with His antibodies at 4°C overnight; immunoblot; only the target purified.
Assay [6] addresses CP-6His (pcDNA4.0-CP-6His) (red-spotted grouper nervous necrosis virus (RGNNV)). Kind of assay: co-IP; cells co-transfected with the two plasmids for 24 h; lysate on resin immobilized with anti-His antibody overnight at 4°C (Pierce Co-IP Kit); western blotting.
Assay [7] addresses His-ΔLR (red-spotted grouper nervous necrosis virus (RGNNV)). Described as above.
The target in assay [8] is His-ΔN-ARM (red-spotted grouper nervous necrosis virus (RGNNV)). Described as above.
Assay [9] addresses His-ΔP-domain (red-spotted grouper nervous necrosis virus (RGNNV)). The description is as above.
Assay [10] concerns the target His-ΔS-domain (red-spotted grouper nervous necrosis virus (RGNNV)). The assay is described as above.
In assay [11] the target is His-ΔN-arm (red-spotted grouper nervous necrosis virus (RGNNV)). The description is as above.

Data on 5 molecules can be found in article PMC12691606.

These are yes or no findings as the source states them, for the method shown. For some assays here: Binding calls can cover weak binding; strength is not graded here. Where a sequence is shown, tags or fusion partners need not be part of it. For some assays here: Binding seen in cells or lysates may run through a third protein.

With GFP-CP (pGFP-CP), the binding entry in assay [1] is “binds”.

As to RGNNV capsid protein (CP) of the virus, the binding result in assay [2] is recorded as “binds”.

Take His-CP fusion protein (pET-32a-CP): the binding result in assay [3] is on record as “binds”.

Take Clathrin-6His (pcDNA4.0-Clathrin-6His): the binding entry in assay [4] is given as “binds”.

B1: GFP-EcCXCR4b (receptor, UniProt G0XMT3 1-367)
chain: T1 sequence
B1: the binding entry in assay [5] is on record as “binds”; in assay [6] it was “binds”; in assay [7], “no binding”; in assay [8] it was “binds”; in assay [9], “binds”; in [10], “binds”. The binding entry in assay [11] is reported as “binds”.
